Source: the supplement of paper PMC8256030
Values joined by “and” are separate entries in the source; they are usually repeats but may differ in a detail not shown here. Equal entries are not always repeated. The list shows a part of the results. This data set is noisy: repeats of one test often differ as much as different tests do.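 HEK293T cells were given each compound shortly before transfection with a reporter in which red mCherry is followed by the SARS-CoV-2 frameshift element and then GFP in the −1 frame, so GFP appears only after frameshifting.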

Each compound was assayed on HEK293T (assay: percent viability (nuclei count) relative to control; higher = more viable cells). Details: 10 µM; 24 h.

First: CCC1=C(C)CN(C(=O)NCCc2ccc(S(=O)(=O)NC(=O)N[C@H]3CC[C@H](C)CC3)cc2)C1=O [glimepiride]
Second: CC(=O)NS(=O)(=O)c1ccc(N)cc1 [sulfacetamide]
The percent viability of the first is lower: 64.6% for the first, 140% for the second.

First: CCCc1nn(C)c2c(=O)[nH]c(-c3cc(S(=O)(=O)N4CCN(C)CC4)ccc3OCC)nc12 [Sildenafil]
Second: CN(C)S(=O)(=O)c1ccc2c(c1)N(CCCN1CCC(CCO)CC1)c1ccccc1S2 [pipotiazine]
The percent viability of the first is higher: 289% for the first, 172% for the second.

First: CCCCc1cc2ccccc2c(OCCN(C)C)n1 [quinisocaine]
Second: CC(=O)c1ccc2c(c1)N(CCCN(C)C)c1ccccc1S2
The percent viability of the first is lower: 116% for the first, 427% for the second.

Going from `CC(C)NNC(=O)COc1ccc(Cl)cc1` [iproclozide] to `CC(C)NC(=N)NC(=N)Nc1ccc(Cl)cc1`, the percent viability rises from 136% to 349%.

First: CCCCC/C=C\C/C=C\C/C=C\CCCCCCC(=O)O
Second: CCCN(CCC)C(=O)C(CCC(=O)O)NC(=O)c1ccccc1 (stereo unspecified) [proglumide]
The percent viability of the first is higher: 273% for the first, 51.6% for the second.

First: S=C1SCN(Cc2ccccc2)CN1Cc1ccccc1
Second: CCC(C(=O)O)c1ccc(N2Cc3ccccc3C2=O)cc1 (stereo unspecified) [indobufen]
The percent viability of the first is lower: 56.2% for the first, 80.7% for the second.

First: CCNC(=O)N1CCN(CCCC(c2ccc(F)cc2)c2ccc(F)cc2)CC1 [amperozide]
Second: COC(=O)C1=C(C)NC(C)=C(C(=O)OCCCN2CCC(c3ccccc3)(c3ccccc3)CC2)C1c1cccc([N+](=O)[O-])c1 (stereo unspecified) [dexniguldipine  iguldipine]
The percent viability of the first is lower: 191% for the first, 278% for the second.

Going from `O=CN(O)CCCP(=O)(O)O` [fosmidomycin] to `Cn1c(=O)c2c(ncn2CCCNCC(O)c2cc(O)cc(O)c2)n(C)c1=O` (stereo unspecified) [reproterol], the percent viability falls from 96.8% to 56.1%.

Compared with `Nc1ncn([C@@H]2O[C@H](CO)[C@@H](O)[C@H]2O)c(=O)n1` [azacitidine], `Nc1nc2c(ncn2COCCO)c(=O)[nH]1` is higher in percent viability: 14.1% for the first, 286% for the second.

Compared with `NC(N)=Nc1nc(CSCCN/C=N/S(=O)(=O)c2ccc(Br)cc2)cs1` [ebrotidine], `N[C@@H](CCC(=O)O)C(=O)N[C@@H](Cc1c[nH]c2ccccc12)C(=O)O` [oglufanide] is higher in percent viability: 103% for the first, 234% for the second.

First: CC1(C)S[C@@H]2[C@H](NC(=O)[C@H](N)c3ccccc3)C(=O)N2[C@H]1C(=O)O [ampicillin]
Second: CO/N=C(\C(=O)N[C@@H]1C(=O)N2C(C(=O)O)=C(COC(C)=O)CS[C@H]12)c1csc(N)n1
The percent viability of the first is lower: 106% for the first, 288% for the second.

Going from `C#Cc1cccc(Nc2ncnc3cc(OCCOC)c(OCCOC)cc23)c1` [Erlotinib] to `CC(C)(C)CC(C)(C)c1ccc(O)c(-n2nc3ccccc3n2)c1` [octrizole], the percent viability falls from 251% to 89.7%.

First: C#C[C@]1(O)CC[C@H]2[C@@H]3CCc4cc(OC)ccc4[C@H]3CC[C@@]21C [mestranol]
Second: CN(C)[C@@H]1C(=O)C(C(N)=O)=C(O)[C@@]2(O)C(=O)C3=C(O)c4c(O)ccc(Cl)c4[C@@H](O)[C@H]3C[C@@H]12
The percent viability of the first is lower: 147% for the first, 155% for the second.

Going from `CC(C)(C)NC[C@H](O)c1ccc(O)c(CO)c1` [levosalbutamol] to `CC(N/C(=N\C#N)Nc1ccncc1)C(C)(C)C` (stereo unspecified) [pinacidil], the percent viability rises from 124% to 200%.

Going from `CN1CC(=O)N2[C@H](c3ccc4c(c3)OCO4)c3[nH]c4ccccc4c3C[C@@H]2C1=O` to `CN[C@H](CC(C)C)C(=O)N[C@H]1C(=O)N[C@@H](CC(N)=O)C(=O)N[C@H]2C(=O)N[C@H]3C(=O)N[C@H](C(=O)N[C@H](C(=O)O)c4cc(O)cc(O)c4-c4cc3ccc4O)[C@H](O)c3ccc(c(Cl)c3)Oc3cc2cc(c3O[C@@H]2O[C@H](CO)[C@@H](O)[C@H](O)[C@H]2O[C@H]2C[C@](C)(N)[C@H](O)[C@H](C)O2)Oc2ccc(cc2Cl)[C@H]1O`, the percent viability falls from 152% to 148%.

`CCCCC(CC)CN1CN(CC(CC)CCCC)CC(C)(N)C1` (stereo unspecified) [hexetidine] gave a percent viability of 208%.

In the case of `COc1cc(NS(=O)(=O)c2ccc(N)cc2)nc(OC)n1` [sulfadimethoxine], the percent viability is reported as 86% and 220%.
For `CN1[C@@H](CC(=O)c2ccccc2)CCC[C@H]1C[C@H](O)c1ccccc1` [lobeline], the percent viability was 212% and 198%.
In the case of `COc1cc(NC(C)CCCN)c2ncccc2c1` (stereo unspecified) [primaquine], the percent viability is reported as 250% and 200%.
In the case of `CCOC(=O)C1=C(COCCN)NC(C)=C(C(=O)OC)C1c1ccccc1Cl` (stereo unspecified) [amlodipine], the percent viability is reported as 182% and 436%.
With `CC#C[C@]1(O)CC[C@H]2[C@@H]3CCC4=CC(=O)CCC4=C3[C@@H](c3ccc(N(C)C)cc3)C[C@@]21C` [mifepristone] the percent viability was 202% and 201%.
